# From the supplement of paper PMC9135407
# Several values for one entry are separate records, joined by “and”; a condition that tells them apart may be missing. Equal entries are not always repeated. Structures can show the parent of a compound that is named as a salt. ± gives the standard deviation of the averaged measurements. The list shows a part of the results. Part of the spread comes from offsets between plates or batches.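 Culture-activated primary human stellate myofibroblasts, where regained lipid droplets signal inactivation. Value: share of Hoechst-counted cells above a per-plate Bodipy cutoff, in duplicate wells, with DMSO negative and nortriptyline positive controls on each plate. Hits: a control-normalized score above the plate's top-tenth-percentile nortriptyline wells, or one of a plate's three best wells. Final well concentrations are not given.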
# System: primary human hepatic stellate cells (donor 1)
# Assay: percent Bodipy-positive cells; higher = more lipid droplet accumulation
# Details: 48 h
# [1] = library stock concentration: 3.33 mM
# [2] = library stock concentration: 10 mM
# [3] = library stock concentration: 1 mM
smiles,measurement,setting,value
Clc1ccc2c(c1)C(N1CCNCC1)=Nc1ccccc1O2 [Amoxapine],percent Bodipy-positive cells,,85.3 ± 7.7%
C[C@H]1NC(=O)NC1=O [Methylhydantoin-5-(D)],percent Bodipy-positive cells,,8.12 ± 1.3%
Cc1ccnc(NS(=O)(=O)c2ccc(N)cc2)n1 [Sulfamerazine],percent Bodipy-positive cells,,11.4 ± 2.6%
same,percent Bodipy-positive cells,[1],11.3 ± 1.9%
same,percent Bodipy-positive cells,library stock concentration: 7.6 mM,21.3 ± 2.3%
same,percent Bodipy-positive cells,[2],27.8% and 20.5%
NC(=O)OCC(COC(N)=O)c1ccccc1 [Felbamate],percent Bodipy-positive cells,[1],24.9 ± 9.5%
CCC[S+]([O-])c1ccc2[nH]c(NC(=O)OC)nc2c1 (configuration not stated) [Ricobendazole],percent Bodipy-positive cells,library stock concentration: 7.1 mM,6.9 ± 5.7%
CCC[S+]([O-])c1ccc2[nH]c(NC(=O)OC)nc2c1 (configuration not stated) [Albendazole Oxide],percent Bodipy-positive cells,[1],6.19 ± 2.6%
same,percent Bodipy-positive cells,[2],14.6 ± 1.4%
Cl.N#CC1=C(N)NC(=C2C(=O)C=CC=C2OCC2CC2)C=C1C1CCNCC1,percent Bodipy-positive cells,[2],84.3 ± 1.7%
"CCCCS(=N)(=O)CCC(N)C(=O)O (racemic) [DL-Buthionine-[S,R]-sulfoximine]",percent Bodipy-positive cells,[2],42 ± 0.51%
N=C(N)NCc1cccc(I)c1 [Iobenguane sulfate],percent Bodipy-positive cells,,28 ± 0.72%
CCCCC/C=C/CCC(=O)N[C@H]1[C@H](Oc2c3cc4cc2Oc2ccc(cc2Cl)[C@@H](O[C@@H]2O[C@H](CO)[C@@H](O)[C@H](O)[C@H]2NC(C)=O)[C@@H]2NC(=O)[C@H](NC(=O)[C@@H]4NC(=O)[C@H]4NC(=O)C(Cc5ccc(c(Cl)c5)O3)NC(=O)[C@H](N)c3ccc(O)c(c3)Oc3cc(O)cc4c3)c3ccc(O)c(c3)-c3c(OC4O[C@H](CO)[C@@H](O)[C@H](O)[C@@H]4O)cc(O)cc3[C@@H](C(=O)O)NC2=O)O[C@H](CO)[C@@H](O)[C@@H]1O (some centres not stated) [Teicoplanin [a(2-1) shown]],percent Bodipy-positive cells,library stock concentration: 1.1 mM,2.99 ± 1.5%
COc1ccc(C[C@H](N)C(=O)N[C@H]2[C@@H](O)[C@H](n3cnc4c(N(C)C)ncnc43)O[C@@H]2CO)cc1 [Puromycin?2HCl],percent Bodipy-positive cells,library stock concentration: 9.4 mM,91 ± 1.4%
COc1ccc(C[C@H](N)C(=O)N[C@H]2[C@@H](O)[C@H](n3cnc4c(N(C)C)ncnc43)O[C@@H]2CO)cc1 [Puromycin hydrochloride],percent Bodipy-positive cells,[2],97.4 ± 2.6%
COc1ccc(C[C@H](N)C(=O)N[C@H]2[C@@H](O)[C@H](n3cnc4c(N(C)C)ncnc43)O[C@@H]2CO)cc1 [Puromycin dihydrochloride],percent Bodipy-positive cells,,96.9 ± 4.4%
COc1ccc(C[C@H](N)C(=O)N[C@H]2[C@@H](O)[C@H](n3cnc4c(N(C)C)ncnc43)O[C@@H]2CO)cc1 [Puromycin 2HCl],percent Bodipy-positive cells,[1],96.7 ± 2.4%
same,percent Bodipy-positive cells,[2],98.67 ± 0.68%
[O-][n+]1cccc(CO)c1,percent Bodipy-positive cells,[2],42 ± 17%
OC(CC1c2ccccc2-c2cncn21)C1CCCCC1 (configuration not stated),percent Bodipy-positive cells,[1],37.1 ± 2.2%
same,percent Bodipy-positive cells,[2],59 ± 7.2%
COCc1nc2c([nH]1)c(=O)n(C)c(=O)n2CC(C)C [8-Methoxymethyl-3-isobutyl-1-methylxanthine],percent Bodipy-positive cells,[2],46.9 ± 0.77%
COCc1nc2c([nH]1)c(=O)n(C)c(=O)n2CC(C)C [8-methoxymethyl-IBMX],percent Bodipy-positive cells,library stock concentration: 18.8 mM,22.4 ± 8.1%
CCCCCCCCCSCCCCCCCC(=O)O [9-Thiastearic Acid],percent Bodipy-positive cells,[3],5.75 ± 1.1%
CCCCCCCCCCCC(=O)CC(=O)N[C@H]1CCOC1=O [N-3-oxo-tetradecanoyl-L-Homoserine lactone],percent Bodipy-positive cells,[3],11.3 ± 5.2%
CNC(=O)c1c(F)cccc1Nc1nc(Nc2cc3c(cc2OC)CCN3C(=O)CN(C)C)nc2[nH]ccc12,percent Bodipy-positive cells,[1],98.08 ± 0.79%
N#CC(=Cc1cc(Cl)cc(Cl)c1)c1cccnc1,percent Bodipy-positive cells,library stock concentration: 18.2 mM,19.1 ± 1.6%
CCCCCCCCCC[Si](C)(C)CCC(=O)NC(Cc1ccc(C)cc1)c1ccccc1 (configuration not stated) [Sandoz 58-035],percent Bodipy-positive cells,[2],45.6 ± 17%
COC(=O)Nc1ccc(-c2nc(N3CCOCC3)c3cnn(C4CCN(C(=O)OC)CC4)c3n2)cc1,percent Bodipy-positive cells,[1],8.31 ± 2.6%
same,percent Bodipy-positive cells,[2],21.7 ± 1.2%
O=C(O)CN(CC(=O)O)Cc1cc2c(cc1O)Oc1cc(O)c(CN(CC(=O)O)CC(=O)O)cc1C21OC(=O)c2ccccc21 [Calcein],percent Bodipy-positive cells,[2],0%
NCCCC(O)(P(=O)(O)O)P(=O)(O)O [Alendronate sodium],percent Bodipy-positive cells,library stock concentration: 6.1 mM,9.944 ± 0.08%
NCCCC(O)(P(=O)(O)O)P(=O)(O)O [Alendronate],percent Bodipy-positive cells,library stock concentration: 8.1 mM,10.5 ± 1.4%
O=C1NCCc2[nH]c(-c3ccnc(-c4cnc5ccccc5c4)c3)cc21 [MK-2 Inhibitor III],percent Bodipy-positive cells,[1],11.4 ± 3.2%
Nc1ccc(S(=O)(=O)Nc2cnc3ccccc3n2)cc1 [Sulfaquinoxaline sodium],percent Bodipy-positive cells,library stock concentration: 6.2 mM,20.08 ± 0.18%
Nc1ccc(S(=O)(=O)Nc2cnc3ccccc3n2)cc1 [Sulfaquinoxaline sodium salt],percent Bodipy-positive cells,,11 ± 2.1%
CNC[C@H](O)[C@@H](O)[C@H](O)[C@H](O)CO [Meglumine],percent Bodipy-positive cells,,9.71 ± 2.2%
same,percent Bodipy-positive cells,[1],7.53 ± 3.5%
same,percent Bodipy-positive cells,[2],13.8 ± 4.7%
COC(=O)N[C@H](C(=O)N[C@@H](Cc1ccccc1)[C@@H](O)CN(Cc1ccc(-c2ccccn2)cc1)NC(=O)[C@@H](NC(=O)OC)C(C)(C)C)C(C)(C)C [Atazanavir Sulfate],percent Bodipy-positive cells,[1],5.56 ± 2.3%
same,percent Bodipy-positive cells,[2],10.2 ± 6.8%
COC(=O)N[C@H](C(=O)N[C@@H](Cc1ccccc1)[C@@H](O)CN(Cc1ccc(-c2ccccn2)cc1)NC(=O)[C@@H](NC(=O)OC)C(C)(C)C)C(C)(C)C [Atazanavir],percent Bodipy-positive cells,library stock concentration: 2.8 mM,5.4 ± 0.31%
CC/C=C\C/C=C\C/C=C\C/C=C\CCCCCCC(=O)OCC [.omega.-3 Arachidonic Acid ethyl ester],percent Bodipy-positive cells,[3],9.25 ± 0.47%
N.N.O=C([O-])C[O-].[Pt+2] [Nedaplatin],percent Bodipy-positive cells,library stock concentration: 6.6 mM,4.92 ± 1.2%
CC(=O)Oc1ccccc1C(=O)Oc1ccccc1C(=O)O [Acetylsalicylsalicylic acid],percent Bodipy-positive cells,,29 ± 9%
O=c1ncc(F)c[nH]1 [5-fluoro-2-pyrimidone],percent Bodipy-positive cells,[2],7.7 ± 2.8%
CC1(C)[C@H]2CC[C@@]1(C)C(=O)C2 [1r-camphor],percent Bodipy-positive cells,[2],12.1 ± 1.9%
CCCCNc1cc(C(=O)O)cc(S(N)(=O)=O)c1Oc1ccccc1 [Bumetanide],percent Bodipy-positive cells,,42.7 ± 18%
same,percent Bodipy-positive cells,[1],10.2 ± 2.7%
C[C@H](Cn1cnc2c(N)ncnc21)OCP(=O)(O)O,percent Bodipy-positive cells,[2],34.4 ± 4.5%
CNC(=O)c1c(I)c(C(=O)NCC(=O)Nc2c(I)c(C(=O)O)c(I)c(C(=O)NCCO)c2I)c(I)c(N(C)C(C)=O)c1I [Ioxaglic acid],percent Bodipy-positive cells,,6.51 ± 1.1%
Fc1ccc2[nH]c(CN3CCN(c4ccccn4)CC3)cc2c1,percent Bodipy-positive cells,[2],22.1 ± 0.42%
O=c1ccn([C@@H]2O[C@H](CO)[C@@H](O)[C@H]2O)c(=O)[nH]1 [Uridine],percent Bodipy-positive cells,[1],9.5 ± 8.2%
same,percent Bodipy-positive cells,[2],11.1 ± 1.7%
COc1ccc2[nH]c(-c3ccccc3)c(CCNC(C)=O)c2c1 [2-Phenylmelatonin],percent Bodipy-positive cells,[2],6.87 ± 0.19%
CC(C)(C)c1ccc(C(=O)CCCN2CCC(OC(c3ccccc3)c3ccccc3)CC2)cc1 [Ebastine],percent Bodipy-positive cells,[2],100%
CCCCCC(O)c1cccc(OCc2ccc3ccccc3n2)c1 (configuration not stated),percent Bodipy-positive cells,[3],8.39% and 14.9%
CCCCC/C=C\C/C=C\CCCCCCCCCC(=O)O [Eicosadienoic acid (20:2 n-6)],percent Bodipy-positive cells,[3],6.43 ± 2.8%
CS(=O)(=O)O.N=C(N)SCCc1ccc(OCc2ccc([N+](=O)[O-])cc2)cc1 [KB-R7943 mesylate],percent Bodipy-positive cells,[2],91.77 ± 0.48%
CC(C)n1c(/C=C/C(O)CC(O)CC(=O)O)c(-c2ccc(F)cc2)c2ccccc21 (configuration not stated) [fluvastatin],percent Bodipy-positive cells,[2],87.4 ± 7.7%
CC(C)n1c(/C=C/C(O)CC(O)CC(=O)O)c(-c2ccc(F)cc2)c2ccccc21 (configuration not stated) [Fluvastatin sodium salt],percent Bodipy-positive cells,,38.2 ± 0.49%
CC(C)n1c(/C=C/C(O)CC(O)CC(=O)O)c(-c2ccc(F)cc2)c2ccccc21 (configuration not stated) [Fluvastatin Sodium],percent Bodipy-positive cells,[1],34 ± 16%
same,percent Bodipy-positive cells,[2],36.5 ± 4%
CC(=O)CCCCn1cnc2c1c(=O)n(C)c(=O)n2C,percent Bodipy-positive cells,[2],6.67 ± 0.22%
O=C1CCC[C@@H]2[C@H]3CCC[N+]4([O-])CCC[C@@H](CN12)[C@@H]34 (some centres not stated) [Oxymatrine],percent Bodipy-positive cells,[1],10.1 ± 1.7%
same,percent Bodipy-positive cells,[2],15.6 ± 0.35%
COC(=O)C(Cc1ccc(OCCn2c(=O)sc3cc(C(=O)c4ccccc4)ccc32)cc1)C(=O)OC,percent Bodipy-positive cells,[2],7.58 ± 4.1%
CCCCC/C=C\C/C=C\CCCCCCCC(=O)NCC(=O)O [N-linoleoylglycine],percent Bodipy-positive cells,[3],9.09 ± 8%
CS(=O)(=O)O.Cc1ccc(NC(=O)c2ccc(CN3CCN(C)CC3)cc2)cc1Nc1nccc(-c2cccnc2)n1,percent Bodipy-positive cells,[2],75.2 ± 12%
COc1cccc2cc(-c3nc([C@H]4CC[C@H](C(=O)O)CC4)n4ncnc(N)c34)[nH]c12,percent Bodipy-positive cells,library stock concentration: 80 uM,9.32 ± 4.1%
same,percent Bodipy-positive cells,library stock concentration: 400 uM,4.64 ± 1.5%
same,percent Bodipy-positive cells,library stock concentration: 2 mM,6.21 ± 5.7%
same,percent Bodipy-positive cells,[1],3.2 ± 1.6%
same,percent Bodipy-positive cells,[2],10.4% and 8.78%
Clc1ccc(C(Cn2ccnc2)OCc2ccc(Sc3ccccc3)cc2)c(Cl)c1 (configuration not stated) [Fenticonazole Nitrate],percent Bodipy-positive cells,[1],14.7 ± 6.1%
same,percent Bodipy-positive cells,[2],87.1 ± 5.2%
CC[C@H](C)C(=O)O[C@H]1C[C@@H](C)C=C2C=C[C@H](C)[C@H](CC[C@@H]3C[C@@H](O)CC(=O)O3)[C@H]21 [Lovastatin],percent Bodipy-positive cells,,54.98 ± 0.3%
same,percent Bodipy-positive cells,[1],18.6 ± 6.6%
same,percent Bodipy-positive cells,library stock concentration: 4.9 mM,23.7% and 20.2%
Cc1c(C)c2c(c(C)c1O)CCC(C)(C(=O)O)O2 (configuration not stated) [Trolox],percent Bodipy-positive cells,,21.8 ± 2.8%
CCCCCCCCCCCCCCCC(=O)OCC(COP(=O)(O)O)OC(=O)CCCCCCCCCCCCCCC (configuration not stated) [Dipalmitoylphosphatidic acid],percent Bodipy-positive cells,[3],11.5 ± 10%
CC(C)=CCC/C(C)=C/CC/C(C)=C/CC/C(C)=C/CC/C(C)=C/CC/C(C)=C/CC1=C(C)C(=O)c2ccccc2C1=O [Vitamin K2],percent Bodipy-positive cells,,3.82 ± 1.8%
CCN(CC)CCOC(=O)c1ccc(N)cc1 [Procaine hydrochloride],percent Bodipy-positive cells,,41.8 ± 0.45%
same,percent Bodipy-positive cells,library stock concentration: 7.3 mM,15.2 ± 2.3%
same,percent Bodipy-positive cells,[2],13.7% and 10.1%
CCN(CC)CCOC(=O)c1ccc(N)cc1 [Procaine HCl],percent Bodipy-positive cells,[1],10.6 ± 2.8%
same,percent Bodipy-positive cells,[2],28.3 ± 9.3%
Cn1ccnc1 [1-Methylimidazole],percent Bodipy-positive cells,[2],44.6 ± 2.7%
CC1(c2ccccc2)OC(C(=O)O)=CC1=O (configuration not stated) [Acifran],percent Bodipy-positive cells,[2],7.8 ± 3.1%
O=c1[nH]c2cc(C(F)(F)F)ccc2n1-c1cc(C(F)(F)F)ccc1O,percent Bodipy-positive cells,[2],55.4 ± 0.33%
same,percent Bodipy-positive cells,library stock concentration: 13.8 mM,20 ± 4.6%
COc1cc(C2Oc3cc([C@H]4Oc5cc(O)cc(O)c5C(=O)[C@@H]4O)ccc3OC2CO)ccc1O (some centres not stated) [Silymarin],percent Bodipy-positive cells,[1],7.53 ± 0.67%
same,percent Bodipy-positive cells,[2],23.6 ± 9.7%
COc1cc(C2Oc3cc([C@H]4Oc5cc(O)cc(O)c5C(=O)[C@@H]4O)ccc3OC2CO)ccc1O (some centres not stated) [Silibinin],percent Bodipy-positive cells,[1],8.22 ± 1.8%
same,percent Bodipy-positive cells,[2],9.78% and 32.4%
O=C1Nc2ccc(-c3cccnc3)cc2/C1=C/c1ccc[nH]1 [JAK3 Inhibitor VI],percent Bodipy-positive cells,[1],16.1 ± 4.6%
